Reference: ChEMBL document CHEMBL1141467, “Multi-target-directed ligands to combat neurodegenerative diseases” (J Med Chem, 2008)

Amino acid sequences for entries named in this document (tags omitted). A change or cut given only in a name is not applied to a line headed by its entry.
UniProt P22303: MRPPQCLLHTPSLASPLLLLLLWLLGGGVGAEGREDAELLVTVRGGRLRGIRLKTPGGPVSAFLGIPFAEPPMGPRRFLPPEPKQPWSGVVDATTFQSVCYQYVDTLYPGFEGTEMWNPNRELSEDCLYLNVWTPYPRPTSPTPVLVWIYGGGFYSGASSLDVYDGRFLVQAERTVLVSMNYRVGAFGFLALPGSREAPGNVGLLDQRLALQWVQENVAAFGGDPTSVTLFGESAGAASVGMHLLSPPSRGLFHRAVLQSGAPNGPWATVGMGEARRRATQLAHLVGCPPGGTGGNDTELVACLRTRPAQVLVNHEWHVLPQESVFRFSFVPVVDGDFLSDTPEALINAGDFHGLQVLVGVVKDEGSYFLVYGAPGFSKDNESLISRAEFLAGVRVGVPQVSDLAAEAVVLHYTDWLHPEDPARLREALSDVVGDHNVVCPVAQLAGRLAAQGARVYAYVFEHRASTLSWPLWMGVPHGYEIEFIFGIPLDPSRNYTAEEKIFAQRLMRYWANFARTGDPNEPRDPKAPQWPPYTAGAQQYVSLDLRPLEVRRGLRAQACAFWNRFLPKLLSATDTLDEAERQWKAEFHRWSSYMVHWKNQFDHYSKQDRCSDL

Target: Acetylcholinesterase (Homo sapiens, UniProt P22303)

Cc1c(C)c2ccc(OCc3cccc(Cl)c3)cc2oc1=O
IC50: 3.39 µM
